The text below walks through data of PMC7791120.

Chains of the proteins cited; added tags and fusions are not shown. Residues count along the entry.
UniProt P11021, residues 19-654: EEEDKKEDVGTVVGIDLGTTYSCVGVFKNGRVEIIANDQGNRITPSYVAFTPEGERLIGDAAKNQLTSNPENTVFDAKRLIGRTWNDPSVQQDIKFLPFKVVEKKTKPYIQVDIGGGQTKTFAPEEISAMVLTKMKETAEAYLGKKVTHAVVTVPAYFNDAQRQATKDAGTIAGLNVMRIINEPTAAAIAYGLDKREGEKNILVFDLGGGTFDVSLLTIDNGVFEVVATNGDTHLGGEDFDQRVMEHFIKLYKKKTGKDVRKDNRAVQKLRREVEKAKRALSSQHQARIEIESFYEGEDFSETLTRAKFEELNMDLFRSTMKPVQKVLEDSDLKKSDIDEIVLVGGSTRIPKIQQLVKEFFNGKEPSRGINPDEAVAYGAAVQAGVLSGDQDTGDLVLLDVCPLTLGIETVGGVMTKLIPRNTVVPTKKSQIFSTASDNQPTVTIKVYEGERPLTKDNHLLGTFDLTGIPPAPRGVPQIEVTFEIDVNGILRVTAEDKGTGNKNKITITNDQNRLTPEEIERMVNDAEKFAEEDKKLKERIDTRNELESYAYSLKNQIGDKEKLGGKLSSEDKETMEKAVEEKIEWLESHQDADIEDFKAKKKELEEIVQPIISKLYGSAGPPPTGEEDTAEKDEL
UniProt P09874: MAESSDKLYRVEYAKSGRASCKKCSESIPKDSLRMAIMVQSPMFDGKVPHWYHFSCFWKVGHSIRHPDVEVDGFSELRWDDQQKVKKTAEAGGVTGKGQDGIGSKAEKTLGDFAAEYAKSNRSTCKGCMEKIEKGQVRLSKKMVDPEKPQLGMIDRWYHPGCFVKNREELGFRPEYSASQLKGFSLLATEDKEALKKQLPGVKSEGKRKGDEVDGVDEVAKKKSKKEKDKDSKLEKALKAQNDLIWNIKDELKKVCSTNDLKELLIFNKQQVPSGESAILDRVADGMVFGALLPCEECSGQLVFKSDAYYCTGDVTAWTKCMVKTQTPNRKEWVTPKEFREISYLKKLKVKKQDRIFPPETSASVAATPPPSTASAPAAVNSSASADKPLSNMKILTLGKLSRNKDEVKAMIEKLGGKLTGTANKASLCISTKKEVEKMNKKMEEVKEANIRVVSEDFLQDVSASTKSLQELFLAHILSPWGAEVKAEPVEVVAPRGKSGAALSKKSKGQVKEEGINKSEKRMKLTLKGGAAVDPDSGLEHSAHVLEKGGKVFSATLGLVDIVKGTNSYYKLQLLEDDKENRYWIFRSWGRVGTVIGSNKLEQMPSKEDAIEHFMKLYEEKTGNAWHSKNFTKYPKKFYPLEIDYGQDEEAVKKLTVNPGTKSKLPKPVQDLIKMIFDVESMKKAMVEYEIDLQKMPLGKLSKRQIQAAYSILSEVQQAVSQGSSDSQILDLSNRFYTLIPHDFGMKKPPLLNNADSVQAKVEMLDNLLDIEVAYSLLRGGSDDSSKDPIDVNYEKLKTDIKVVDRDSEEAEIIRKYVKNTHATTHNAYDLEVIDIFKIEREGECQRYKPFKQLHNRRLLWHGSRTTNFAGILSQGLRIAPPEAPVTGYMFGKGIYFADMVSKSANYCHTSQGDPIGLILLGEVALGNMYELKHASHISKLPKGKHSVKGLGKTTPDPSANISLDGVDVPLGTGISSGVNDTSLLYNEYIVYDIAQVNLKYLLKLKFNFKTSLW

Results are given in words; binding and its absence hold for the method and conditions named. Binding seen in cells or lysates may run through a third protein. Here binding means that the protein was enriched with, or labelled near, the bait; the list need not be complete.

The assay concerns the target T1, Tribbles homolog 2 (TRIB2), endogenous (human (endogenous in Bel-7402)) (UniProt Q92519).
T1 sequence: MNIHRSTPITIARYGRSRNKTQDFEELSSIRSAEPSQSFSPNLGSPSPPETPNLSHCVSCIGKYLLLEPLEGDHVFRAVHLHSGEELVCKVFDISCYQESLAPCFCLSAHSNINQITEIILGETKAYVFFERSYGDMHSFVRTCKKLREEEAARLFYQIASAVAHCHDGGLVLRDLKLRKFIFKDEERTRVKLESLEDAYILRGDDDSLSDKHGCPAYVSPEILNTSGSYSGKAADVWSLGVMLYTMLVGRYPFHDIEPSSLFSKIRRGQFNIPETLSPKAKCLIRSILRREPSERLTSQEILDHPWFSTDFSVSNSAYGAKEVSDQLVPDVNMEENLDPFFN
The experiment in a line: affinity purification with mass spectrometry; immunoprecipitates of Bel-7402 lysates with anti-TRIB2 antibodies (ab117981), Nano-LC ESI-QTOF-MS, three independent biological replicates.

Take “GRP78, endogenous (from UniProt P11021 19-654)”: the binding entry is listed as “binds”.
In the case of “PARP1, endogenous (from UniProt P09874 1-1014)” it was “binds”.
